# The campaign covered roughly 340,000 compounds. About 170 (0.05%) were called active. The shares of active, inactive and inconclusive entries below differ from those in the screen. Calls come from the whole dose curve; as a rule, active = well fitted inhibition curve with a large enough effect in the signal ratio, with a control signal flat (not every such curve was filed as active); inconclusive = small, poorly fitted or top-dose-only effect, or effect the other way, or a change in a side signal; inactive = flat fitted curve, though single readings scatter; the % refers to the signal ratio. Where the call is inconclusive, the potency comes from a doubtful curve fit.
# Assay: qHTS Assay to Find Inhibitors of Chronic Active B-Cell Receptor Signaling;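 for activity change, negative = inhibition: plate controls were basal doxycycline-induced cells for no effect and cells given 10 µM MG132 for full effect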
# Conditions: ABC-DLBCL IkBa-CBG/CBR reporter, luminescence ratio (green luciferase fused to IkBa over red control in TMD8 lymphoma cells), 4 h; activity change, negative = inhibition: at 46.1 µM (top of the series)
# In short: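 Cell line TMD8 (human ABC DLBCL), stably expressing tet-inducible CBG68-IkBa fusion and CBR; IMDM/0.5% FBS; cpd up to 46 uM; dox induction, 4 h, 37C/5% CO2; dual luminescence; green/red ratio; MG132 control.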
# Potency is the fitted concentration of half-maximal effect.
Structure (SMILES),Potency,"activity change, negative = inhibition"
O=C(O)CCCCCn1c(O)c(C=C2N=c3ccccc3=N2)sc1=S,"inconclusive: 5.8 µM [rising, full curve, poor fit]",
O=C(c1cc(-c2ccc(F)cc2)on1)N1CCN(c2ccc(F)cc2)CC1,"inconclusive: 7.08 µM [falling, partial curve]",
Cc1noc(C)c1COc1ccccc1C(=O)Nc1ccc(C(N)=O)cc1,,inactive: 5.03%
COc1ccc(C2CN=NC23CCCc2ccccc2C3=O)cc1 (configuration not stated),,inconclusive: 11.1%
Cc1cc(C(=O)OCC(=O)N2CC(C)OC(C)C2)c2ccccc2n1 (configuration not stated),,inconclusive: 11.9%
N#Cc1cccc(S(=O)(=O)NCC(=O)OCC(=O)c2ccc[nH]2)c1,,inconclusive: 9.41%
O=c1c(NCCc2ccccc2)c(-c2ccccc2)c1=O,,inactive: 1.81%
COc1ccc(C(=O)C2CCCN(C(=O)COc3ccc(C(C)=O)cc3)C2)cc1F (configuration not stated),"inconclusive: 35.5 µM [falling, partial curve, poor fit]",
Cc1ccc(/C=C/C(=O)N2CC(=O)Nc3ccccc32)o1,,inconclusive: 4.06%
COc1ccc(NC(=O)N2CCC(O)(c3cccnc3)CC2)c(OC)c1,"inconclusive: 5.8 µM [falling, partial curve, poor fit]",
O=C(CSc1nnc2c(n1)[nH]c1ccccc12)Nc1ccc(S(=O)(=O)Nc2ncccn2)cc1,,inconclusive: -0.647%
COCCCNC(=S)N(CCO)Cc1cc2cc3c(cc2[nH]c1=O)OCCO3,,inconclusive: 9.65%
Cc1nnc(SCC(=O)N2CCCCC2)n1CC1CCCO1 (configuration not stated),,inconclusive: 8.66%
CCOC(=O)c1c(N)n(-c2ccc(OCC)cc2)c2nc3ccccc3nc12,,inconclusive: 1.19%
O=c1[nH]cnc2c1N=C(c1cccc([N+](=O)[O-])c1)CC(c1ccccc1)N2 (configuration not stated),,inconclusive: 0.395%
CNC[C@@H]1Oc2ccc(NS(=O)(=O)c3ccc(OC)cc3)cc2CC(=O)N([C@H](C)CO)C[C@@H]1C,,inconclusive: 2.26%
CN1CCN(CCCNC(=O)c2ccc(/C=C3\Sc4ccccc4N(Cc4ccccc4F)C3=O)cc2)CC1,"inconclusive: 20 µM [falling, partial curve, poor fit]",
CCCC(C)c1nnc(NC(=O)CCS(=O)(=O)c2ccccc2)s1 (configuration not stated),"inconclusive: 35.5 µM [rising, partial curve]",
N#CCSc1nc2c(c(C3CC=CCC3)c1C#N)CCC2 (configuration not stated),,inconclusive: 1.26%

# A run of entries from the list above, for reference:
Structure (SMILES),Potency,"activity change, negative = inhibition"
COc1ccc(C(=O)C2CCCN(C(=O)COc3ccc(C(C)=O)cc3)C2)cc1F (configuration not stated),"inconclusive: 35.5 µM [falling, partial curve, poor fit]",
Cc1ccc(/C=C/C(=O)N2CC(=O)Nc3ccccc32)o1,,inconclusive: 4.06%

# The list continues:

Structure (SMILES),Potency,"activity change, negative = inhibition"
O=C(Nc1ccc(S(=O)(=O)NC2=NCCCCC2)cc1)c1ccc(Cl)c([N+](=O)[O-])c1,,inactive: -0.405%
O=C(c1n[nH]c2c1CCCC2)n1ccnc1,,inconclusive: 10.1%
Cc1cccc2nc(CSc3nc4ccc([N+](=O)[O-])cc4[nH]3)c(Br)n12,,inconclusive: 2.6%
CN(CC(=O)Nc1c(Cl)cccc1Cl)C(=O)CCC1CCCC1,,inactive: 0.78%
COc1cc(C2Nc3cc(Cl)c(S(N)(=O)=O)cc3S(=O)(=O)N2)ccc1OCc1ccccc1 (configuration not stated),,inconclusive: -5.52%
COc1ccccc1-c1nnc(NC(=O)c2cccc(N3C(=O)CCC3=O)c2)o1,"inconclusive: 7.31 µM [falling, partial curve, poor fit]",
CC(=O)NC(C)c1ccc(Cl)c(Cl)c1 (configuration not stated),,inactive: 0.395%
O=C(Cn1ncc2ccccc21)N1CCc2ccccc21,,inconclusive: -0.0069%
COc1ccc(C(=O)Nn2c(SCC(=O)NCc3ccccc3)nc3ccccc3c2=O)cc1,"inconclusive: 29.1 µM [rising, single point]",
COC(=O)c1ccccc1NC(=O)Cn1cnc2cc(C)c(C)cc21,"inconclusive: 25.1 µM [falling, partial curve, poor fit]",
CCOC(=O)c1nn(-c2ccccc2)cc1O,,inconclusive: 4.36%
Cc1cccc(C(=O)n2c(=S)nc3cc(C)ccn32)c1,"inconclusive: 6.31 µM [rising, full curve]",
CCS(=O)(=O)N1CCc2nc(-c3ccccc3)sc2C1,"inconclusive: 25.1 µM [falling, single point]",
COc1ccc(-c2nc3cnccn3c2NC2CCCCC2)cc1-c1cccc(Cl)c1,,inconclusive: 0.199%
COc1ccc(C(=O)Nc2ccc(N3CCN(C)CC3)cc2)cc1,,inactive: 3.99%
CSc1nnc2c(n1)OC(c1ccsc1)N(C(C)=O)c1ccccc1-2 (configuration not stated),,inconclusive: 16.2%
Cc1cccc(Oc2ccc(NC(=O)C3CC=CCC3C(=O)O)cc2)c1 (configuration not stated),,inactive: 2.4%
COc1ccc(NC(=O)C2CCC(N3C(=O)C4C5C=CC(C5)C4C3=O)CC2)cc1 (configuration not stated),"inconclusive: 0.82 µM [rising, full curve, poor fit]",

# Source: PubChem BioAssay AID493014 (National Center for Advancing Translational Sciences (NCATS), 2011)
